Binding data for 1 molecule are collected here from publication PMC3316573.

No constants are given. Whether binding was seen depends on the method and setting. Binding seen in cells or lysates may run through a third protein. Some binding calls cover weakened binding; strength is not graded here.

This experiment deals with HIF-1α (human (endogenous in Hep3B)), Q16665. The experiment can be described thus: co-IP; endogenous proteins; cytoplasmic fraction (1250 µg) of Hep3B cells treated with 125 µM DMOG for 5 hours; antibody against SIRT1 or HIF-1α or control IgG1 overnight at 4°C, Protein G magnetic microbeads; Western blot. The note with it: remark: other sources report otherwise.

B1: SIRT1, Q96EB6-1 1-747 (protein)
chain: MADEAALALQPGGSPSAAGADREAASSPAGEPLRKRPRRDGPGLERSPGEPGGAAPEREVPAAARGCPGAAAAALWREAEAEAAAAGGEQEAQATAAAGEGDNGPGLQGPSREPPLADNLYDEDDDDEGEEEEEAAAAAIGYRDNLLFGDEIITNGFHSCESDEEDRASHASSSDWTPRPRIGPYTFVQQHLMIGTDPRTILKDLLPETIPPPELDDMTLWQIVINILSEPPKRKKRKDINTIEDAVKLLQECKKIIVLTGAGVSVSCGIPDFRSRDGIYARLAVDFPDLPDPQAMFDIEYFRKDPRPFFKFAKEIYPGQFQPSLCHKFIALSDKEGKLLRNYTQNIDTLEQVAGIQRIIQCHGSFATASCLICKYKVDCEAVRGDIFNQVVPRCPRCPADEPLAIMKPEIVFFGENLPEQFHRAMKYDKDEVDLLIVIGSSLKVRPVALIPSSIPHEVPQILINREPLPHLHFDVELLGDCDVIINELCHRLGGEYAKLCCNPVKLSEITEKPPRTQKELAYLSELPPTPLHVSEDSSSPERTSPPDSSVIVTLLDQAAKSNDDLDVSESKGCMEEKPQEVQTSRNVESIAEQMENPDLKNVGSSTGEKNERTSVAGTVRKCWPNRVAKEQISRRLDGNQYLFLPPNRYIFHGAEVYSDSEDDVLSSSSCGSNSDSGTCQSPSLEEPMEDESEIEEFYNGLEDEPDVPERAGGAGFGTDGDDQEAINEAISVKQEVTDMNYPSNKS
Take B1: the binding result is on record as “binds”.
